Measured values taken from US20210032312A1.
Results are given in words; binding and its absence hold for the method and conditions named. Some results given as binding are weak or reduced against the parent protein; the word gives no strength.

By UniProt entry, the sequences of proteins in these tests, tags left out. Residues count along the entry.
UniProt P01732, residues 22-182: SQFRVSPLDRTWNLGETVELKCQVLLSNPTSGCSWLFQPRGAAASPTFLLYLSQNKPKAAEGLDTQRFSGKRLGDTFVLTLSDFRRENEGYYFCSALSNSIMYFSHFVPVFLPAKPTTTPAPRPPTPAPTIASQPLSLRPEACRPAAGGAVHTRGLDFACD

What follows are binders tested against recombinant human CD8 alpha fused to Fc fragment of human IgG1 (human) (UniProt P01732) (assay: ELISA, biotinylated CD8W7 or CD8W13).

| binding | Binder |
| --- | --- |
| binds | P283FR9P1366_A5 (designed binder) LPAPKNLVVSRVTEDSARLSWTAPDAAFDSFWIAYPEWPTRGEAIVLTVPGSERSYDLTGLKPGTEYFVVIYGVKGGSPSPPLSAIFTT |
| binds | P283FR9P1366_H3 (designed binder) LPAPKNLVVSRVTEDSARLSWTAPDAAFDSFAIAYPEWPIKGEAIVLTVPGSERSYDLTGLKPGTEYWVVIYGVKGGVFSEPLSAIFTT |
| binds | P283FR9P1366_H7 (designed binder) LPAPKNLVVSRVTEDSARLSWTAPDAAFDSFQIAYPEYPALGEAIVLTVPGSERSYDLTGLKPGTEYFVIIAGVKGGIQSWPLSAIFTT |
| binds | P283FR9P1366_B7 (designed binder) LPAPKNLVVSRVTEDSARLSWTAPDAAFDSFWITYPEWPVNGEAIVLTVPGSERSYDLTGLKPGTEYWVVIWGVKGGVESPPLSAIFTT |
| binds | P283FR9P1366_C4 (designed binder) LPAPKNLVVSRVTEDSARLSWTAPDAAFDSFNIAYPEWPVRGEAIVLTVPGSERSYDLTGLKPGTEYWVIIIGVKGGEDSWPLSAIFTT |
| binds | P283GR7P1367_F5 (designed binder) LPAPKNLVVSRVTEDSARLSWTAPDAAFDSFDIAYPEWPTDGEAIVLTVPGSERSYDLTGLKPGTEYFVIIYGVKGGALSRPLSAIFTT |
| binds | P283GR7P1367_H2 (designed binder) LPAPKNLVVSRVTEDSARLSWTAPDAAFDSFDIAYPEWPTDGEAIVLTVPGSERSYDLTGLKPGTEYFVVIYGVKGGGRSYPLSAIFTT |
| binds | P283FR9P1366_F5 (designed binder) LPAPKNLVVSRVTEDSARLSWTAPDAAFDSFDIGYPEWPIKGEAIVLTVPGSERSYDLTGLKPGTEYWVIIWGVKGGDRSEPLSAIFTT |
| binds | P283FR9P1366_H6 (designed binder) LPAPKNLVVSRVTEDSARLSWTAPDAAFDSFDIAYPEWPVTGEAIVLTVPGSERSYDLTGLKPGTEYWVIIFGVKGGERSWPLSAIFTT |
| binds | P283GR7P1367_C9 (designed binder) LPAPKNLVVSRVTEDSARLSWTAPDAAFDSFLIGYPEWPLGGEAIVLTVPGSERSYDLTGLKPGTEYWVIIYGVKGGEYSDPLSAIFTT |
| binds | P283FR9P1366_D8 (designed binder) LPAPKNLVVSRVTEDSARLSWTAPDAAFDSFEIAYPEIPIAGEAIVLTVPGSERSYDLTGLKPGTEYFVIIYGVKGGDWSDPLSAIFTT |
| binds | P283FR9P1366_G5 (designed binder) LPAPKNLVVSRVTEDSARLSWTAPDAAFDSFQIAYPEYPALGEAIVLTVPGSERSYDLTGLKPGTEYFVIIIGVKGGDESFPLSAIFTT |
| binds | P283GR7P1367_A11 (designed binder) LPAPKNLVVSRVTEDSARLSWTAPDAAFDSFDIAYPEWPTDGEAIVLTVPGSERSYDLTGLKPGTEYFVIIYGVKGGSYSEPLSAIFTT |
| binds | P282CR9P1358_C2 (designed binder) LPAPKNLVVSRVTEDSARLSWTAPDAAFDSFKIAYPEWPSNGEAIVLTVPGSERSYDLTGLKPGTEYAVFIWGVKGGAFSNPLSAIFTT |
| binds | P283FR9P1366_F8 (designed binder) LPAPKNLVVSRVTEDSARLSWTAPDAAFDSFAIAYPEIAKWGEAIVLTVPGSERSYDLTGLKPGTEYFVIIYGVKGGVHSFPLSAIFTT |
| binds | P283FR9P1366_H10 (designed binder) LPAPKNLVVSRVTEDSARLSWTAPDAAFDSFNIAYPEWPPEGEAIVLTVPGSERSYDLTGLKPGTEYFVVIYGVKGGHLSDPLSAIFTT |
| binds | P283FR9P1366_C3 (designed binder) LPAPKNLVVSRVTEDSARLSWTAPDAAFDSFKIAYPEWPDGGEAIVLTVPGSERSYDLTGLKPGTEYFVIIYGVKGGILSPPLSAIFTT |
| binds | P283GR7P1367_B7 (designed binder) LPAPKNLVVSRVTEDSARLSWTAPDAAFDSFDIAYPEWPTDGEAIVLTVPGSERSYDLTGLKPGTEYFVVIYGVKGGHWSYPLSAIFTT |
| binds | P283FR9P1366_D7 (designed binder) LPAPKNLVVSRVTEDSARLSWTAPDAAFDSFSIAYPELPVKGEAIVLTVPGSERSYDLTGLKPGTEYFVVIWGVKGGTYSGPLSAIFTT |
| binds | P283FR9P1366_C6 (designed binder) LPAPKNLVVSRVTEDSARLSWTAPDAAFDSFSIAYPEWPVYGEAIVLTVPGSERSYDLTGLKPGTEYFVVIYGVKGGNYSDPLSAIFTT |

| binding | Binder |
| --- | --- |
| binds | P283FR9P1366_D12 (designed binder) LPAPKNLVVSRVTEDSARLSWTAPDAAFDSFDIAYPEWPLGGEAIVLTVPGSERSYDLTGLKPGTEYWVIILGVKGGDQSWPLSAIFTT |
| binds | P283FR9P1366_G8 (designed binder) LPAPKNLVVSRVTEDSARLSWTAPDAAFDSFDIAYPELPIGGEAIVLTVPGSERSYDLTGLKPGTEYFVVIYGVKGGIHSAPLSAIFTT |
| binds | P283FR9P1366_H9 (designed binder) LPAPKNLVVSRVTEDSARLSWTAPDAAFDSFEIAYPEWPVNGEAIVLTVPGSERSYDLTGLKPGTEYWVVIWGVKGGVNSYPLSAIFTT |
| binds | P283FR9P1366_E11 (designed binder) LPAPKNLVVSRVTEDSARLSWTAPDAAFDSFDIAYPEWPVPGEAIVLTVPGSERSYDLTGLKPGTEYWVIIKGVKGGNISWPLSAIFTT |
| binds | P283GR7P1367_H9 (designed binder) LPAPKNLVVSRVTEDSARLSWTAPDAAFDSFDIAYPEWPTDGEAIVLTVPGSERSYDLTGLKPGTEYFVVIYGVKGGGRSAPLSAIFTT |
| binds | P283FR9P1366_H5 (designed binder) LPAPKNLVVSRVTEDSARLSWTAPDAAFDSFIYIENKVNGEAIVLTVPGSERSYDLTGLKPGTEYHVTIGGVKGGTESNTLSAIFTT |
| binds | P282BR9P1357_H3 (designed binder) LPAPKNLVVSRVTEDSARLSWKKREYQDPGFDSFLIQYQESEKVGEAIVLTVPGSERSYDLTGLKPGTEYTVSIYGVDVKWEGNRPVASNPLSAIFTT |
| binds | P283FR9P1366_F9 (designed binder) LPAPKNLVVSRVTEDSARLSWTAPDAAFDSFHIFYPELPIAGEAIVLTVPGSERSYDLTGLKPGTEYWVNISGVKGGYESWPLSAIFTT |
| binds | P283GR7P1367_B9 (designed binder) LPAPKNLVVSRVTEDSARLSWTAPDAAFDSFEIWYHEYHPRGEAIVLTVPSSERSYDLTGLKPGTEYDVVISGVKGGHWSYPLSAIFTT |
| binds | P283GR7P1367_E5 (designed binder) LPAPKNLVVSRVTEDSARLSWTAPDAAFDSFEIWYHEYHPRGEAIVLTVPGSERSYDLTGLKPGTEYDVVISGVKGGHWSYPLSAIFTT |
| binds | P283GR7P1367_G8 (designed binder) LPAPKNLVVSRVTEDSARLSWTAPDAAFDSFYIAYPEYVWGGEATSLGEAIVLTVPGSERSYDLTGLKPGTEYFVVITGVKGGLGSYPLSAIFTT |
| binds | P283FR9P1366_H11 (designed binder) LPAPKNLVVSRVTEDSARLSWTAPDAAFDSFQIQYLETAPDGEAIVLTVPGSERSYDLTGLKPGTEYYVWIPGVKGGAFSPLSAIFTT |
| binds | P283FR9P1366_A9 (designed binder) LPAPKNLVVSRVTEDSARLSWTAPDAAFDSFNIAYGEYPGPGEAIVLTVPGSERSYDLTGLKPGTEYWVPIWGVKGGELSEPLSAIFTT |
| binds | P283FR9P1366_D6 (designed binder) LPAPKNLVVSRVTEDSARLSWTAPDAAFDSFNIFYPELVFPGEAIVLTVPGSERSYDLTGLKPGTEYWVNISGVKGGEHSWPLSAIFTT |
| binds | P283FR9P1366_G1 (designed binder) LPAPKNLVVSRVTEDSARLSWTAPDAAFDSFYISYPELPVEGEAIVLTVPGSERSYDLTGLKPGTEYWVIIWGVKGGATSEPLSAIFTT |
| binds | P283FR9P1366_H8 (designed binder) LPAPKNLVVSRVTEDSARLSWTAPDAAFDSFYISYPEWPGSGEAIVLTVPGSERSYDLTGLKPGTEYAVFIWCVKGGWLSDPLSAIFTT |
| binds | P283FR9P1366_C2 (designed binder) LPAPKNLVVSRVTEDSARLSWTAPDAAFDSFKISYPEWPPEGEAIVLTVPGSERSYDLTGLKPGTEYAVFIWCVKGGEHSWPLSAIFTT |
| binds | P283GR7P1367_H8 (designed binder) LPAPKNLVVSRVTEDSARLSWTAPDAAFDSFSINYWEEDPAGEAIVLTVPGSERSYDLTGLKPGTEYRVLIGGVKGGHGSLPLSAIFTT |
| binds | P283GR7P1367_B4 (designed binder) LPAPKNLVVSRVTEDSARLSWTAPDAAFDSFSILYYELPPSGEAIVLTVPGSERSYDLTGLKPGTEYTVSIFGVKGGDNSFPLSAIFTT |
| binds | P282BR9P1357_G9 (designed binder) LPAPKNLVVSRVTEDSARLSWPIASQIHSPFDSFLIQYQESEKVGEAIVLTVPGSERSYDLTGLKPGTEYTVSIYGVDVKYDIDSRPISSNPLSAIFTT |
